Measurements: PubChem BioAssay AID1259415 (National Center for Advancing Translational Sciences (NCATS), 2018)
In all, about 410,000 compounds went through this assay and about 18,000 (4.4%) were called active. The shares of active, inactive and inconclusive entries below differ from those in the screen. Cut-off read from the data, not from the text of the source: active = activity change below about -60%; inconclusive = no clear call, values can overlap the other calls; inactive = above about -39%.

Assay: qHTS Assay for inhibitors of the human cytomegalovirus (HCMV)
Settings: HFF cells, HCMV-luciferase reporter, 72 h; at 57.5 µM; active compounds read low
Outline: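 Steps: HFFs plated, 16 h 37C; compounds added; HCMV-luciferase added to MOI 1 PFU/cell; 72 h 37C; OneGlo reagent, 5 min room temperature; luminescence read, normalized to controls.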
% is set by controls: 0 for no effect and ±100 for the full control effect.

| SMILES | activity change, negative = inhibition |
| --- | --- |
| COc1ccc(CNC(=O)/C(C#N)=C/c2cccc(OC)c2OC)cc1 | active: -83.6% |
| O=C(Nc1ccc(-n2ccc(C(F)(F)F)n2)cc1)Nc1cccc(Cl)c1 | active: -84.3% |
| O=C(Nc1ccc(S(=O)(=O)N2CCc3ccccc32)cc1)c1ccc2c(c1)OCO2 | active: -84.8% |
| COc1ccc(Cl)cc1NC(=O)CC1CCCC1 | inconclusive: -40.7% |
| Cc1cccc(C)c1NC(=O)CS(=O)CC(=O)N1CCN(c2ccccc2)CC1 (configuration not stated) | inconclusive: -40.6% |
| CCS(=O)(=O)c1nc(S(=O)(=O)c2ccc(Cl)cc2)c(NCCCN2CCOCC2)s1 | inactive: -35.5% |
| Cn1ccnc1Sc1ccc(C(N)=O)cc1[N+](=O)[O-] | inconclusive: -54.6% |
| O=c1[nH]c(C2CCN(S(=O)(=O)c3cccc(Cl)c3)CC2)nc2c1nnn2Cc1ccccc1 | inactive: 6.9% |
| CC(Sc1nc(=O)cc(N)n1CCc1ccccc1)C(=O)Nc1ccc(Cl)cc1 (configuration not stated) | inconclusive: -40.5% |
| O=C(COC(=O)/C=C/c1ccccc1Cl)NC1CCCCCC1 | inactive: -6.1% |
| OC(COCCC12CC3CC(CC(C3)C1)C2)CN1CCCCC1 (configuration not stated) | inconclusive: -41.2% |
| CCC(NC(=O)c1cc(COc2cncc(Cl)c2)on1)c1ccncc1 (configuration not stated) | inconclusive: -57.6% |
| CC1CC(C)CN(C(=O)Nc2ccc(Br)cc2)C1 (configuration not stated) | inconclusive: -46.8% |
| CC1=C(C(=O)N(C(C)C)C(C)C)CC(CC(=O)NCc2ccco2)C(=O)N1CCCN1CCCC1=O (configuration not stated) | inactive: 12.7% |
| Cc1ccc(N=Nc2ccc(C)cc2NC(=O)Nc2ccccc2F)cc1 | active: -67.1% |
| O=C(NCCc1ccccc1)c1nc2nc(-c3cccs3)cc(C(F)(F)F)n2n1 | inactive: 64.9% |
| S=C(NCCSCc1ccc(Cl)cc1)Nc1ccccc1 | active: -68% |
| Cc1noc(C)c1COc1cccc(C(=O)Nc2ccc(Br)cc2F)c1 | inactive: 12.4% |
| C/C(=N\NC(=S)NC(C)C)c1ccc2c(c1)OCCO2 | inconclusive: -42.8% |
| COc1ccc2[nH]c3c(c2c1)CCN1C(=O)C(CC(=O)NCCC2=CCCCC2)C[C@H](C(=O)N2CCCCC2)[C@@]31C (some centres not stated) | inactive: -22.5% |
| CC(=O)N1CCN(c2ccnc3cc(Cl)ccc23)CC1 | inconclusive: -45% |
| COc1ccc(C2c3c(n(C)c4ccccc34)C(=O)N2CC(=O)Nc2ccc(C)c(Cl)c2)cc1 (configuration not stated) | inconclusive: 0% |

| SMILES | activity change, negative = inhibition |
| --- | --- |
| COc1ccc(Cl)cc1NC(=O)c1cccc([N+](=O)[O-])c1O | inconclusive: -42.2% |
| CN(C)C(=O)c1ccc(NC(=O)c2cccc(S(=O)(=O)N3CCCCCC3)c2)cc1 | inconclusive: -48.7% |
| C[C@@H]([C@@H](O)c1ccccc1)N(C)C(=O)C(N)Cc1ccccc1 (some centres not stated) | inconclusive: -42% |
| CC1=Nc2cc(C(=O)NCC3CCCO3)ccc2Sc2ccc(Br)cc21 (configuration not stated) | inconclusive: -42.9% |
| CCOC(=O)C(C)Oc1cccc2c(=O)n(CC(=O)NCc3ccccc3)ccc12 (configuration not stated) | active: -89.5% |
| CC(C)OCCCn1c(SCC(=O)N2CCc3ccccc32)nc2ccccc2c1=O | inconclusive: -43.9% |
| CCN(Cc1ccncc1)C(=O)C(CO)c1ccccc1 (configuration not stated) | inconclusive: -58.2% |
| CCOc1nc(-c2ccccc2)ccc1-c1noc(-c2ccco2)n1 | inconclusive: -41.2% |
| O=C(CCS(=O)(=O)c1cc(Br)cc2c1N(C(=O)C1CC1)CC2)NCc1ccc(Cl)cc1 | inactive: -22.7% |
| O=C(NCC1CC1)c1nnc2n1CCN(C(=O)c1cccc3c1OCCO3)C2 | inactive: 10.5% |
| NS(=O)(=O)c1ccc(N/N=C/c2cn(-c3ccccc3)nc2-c2cccs2)c([N+](=O)[O-])c1 | active: -113% |
| Cc1cccc(C(=O)NC2CCN(CC(=O)N3CCOCC3)CC2)c1 | inconclusive: -41.5% |
| COc1ccc(-c2csc(N(CCCN3CCOCC3)C(=O)CCl)n2)cc1 | inactive: 36.3% |
| CC(C)OCCCNC(=O)c1ccc2c(c1)NC(=O)c1ccccc1S2 | inconclusive: -47.9% |
| CCC1(C)Cc2ccccc2-c2nc(NCCCO)n(C)c(=O)c21 (configuration not stated) | inconclusive: -47.6% |
| CCCCCc1c(-c2ccccc2)ncn1CCc1ccccc1OC | inconclusive: -45.1% |
| CSc1nc(N(C)NC(=O)c2cccc(C)c2)c2ccccc2n1 | active: -87.3% |
| COc1ccccc1NC(=O)CCn1c(=O)c2cccn2c2ccccc21 | inconclusive: -47.1% |
| CCOC(=O)c1c(NC(=O)COC(=O)c2cccc([N+](=O)[O-])c2)sc(C(=O)N(C)C)c1C | inconclusive: -49% |
| Cc1ccc(N2CCN(c3ccc(NCc4nc5ccccc5n4C)cc3)CC2)cc1 | inactive: 19.2% |
| Cc1c(C(=O)OCCN2CCCCC2)oc2ccccc12 | inactive: -3.82% |
| Cc1ccnc2c(N3C(=O)C4C5c6ccccc6C(c6ccccc65)C4C3=O)cccc12 (configuration not stated) | inconclusive: -45.5% |

Of the compounds above, these contain an NH in an aromatic ring:

| SMILES | activity change, negative = inhibition |
| --- | --- |
| O=c1[nH]c(C2CCN(S(=O)(=O)c3cccc(Cl)c3)CC2)nc2c1nnn2Cc1ccccc1 | inactive: 6.9% |
| COc1ccc2[nH]c3c(c2c1)CCN1C(=O)C(CC(=O)NCCC2=CCCCC2)C[C@H](C(=O)N2CCCCC2)[C@@]31C (some centres not stated) | inactive: -22.5% |

(list continues)

| SMILES | activity change, negative = inhibition |
| --- | --- |
| CN(C)C1(c2nnnn2CCOC(=O)Nc2ccc(Cl)cc2)CCCCC1 | inconclusive: -44.3% |
| Cc1nnc(SCc2cnc(-c3ccc(C(C)C)cc3)s2)n1C | inactive: 94.6% |
| CC(C)(C)n1nc2c(c1NC(=O)COc1ccc3ccccc3c1)CS(=O)C2 (configuration not stated) | inconclusive: -53.3% |
| COc1cc(C(=O)NN=C2c3ccccc3-c3ccccc32)cc(OC)c1OC | active: -87.6% |
| COc1cccc(COC(=O)Cc2ccc(S(=O)(=O)N3CCOCC3)s2)c1OC | inactive: -12.4% |
| CCC(=O)c1ccc(OCC(=O)N2CCN(CC(=O)Nc3ccccc3C(F)(F)F)CC2)cc1 | inconclusive: -54.6% |
| O=[N+]([O-])c1cccc2c1ccc1ncccc12 | inconclusive: -44% |
| Cc1ccc(C(=O)N2c3ccc(C)cc3C(C)(c3ccccc3)CC2(C)C)cc1 (configuration not stated) | inconclusive: -53.6% |
| CC1=N/C(=C\c2ccc([N+](=O)[O-])cc2)C(=O)N1c1ccc(Cl)cc1 | inconclusive: -46% |
| CN(c1ccccc1)S(=O)(=O)c1cc(C(=O)Nc2nc3ccccc3[nH]2)ccc1Cl | active: -61.3% |
| COc1ccc(OCC(=O)NCc2ccc3c(c2)CCN3C(=O)c2ccccc2)cc1 | inactive: 6.2% |
| O=C(O)CCN1C(=O)/C(=C2\C(=O)N(Cc3ccc(F)cc3)c3ccccc32)SC1=S | inconclusive: -48.4% |
| COc1ccccc1N1CCN(c2ncnc3c2cnn3-c2cc(Cl)ccc2C)CC1 | inconclusive: -45.7% |
| O=S(=O)(c1ccc(Br)s1)N1CCCCC1 | inconclusive: -40.8% |
| Nc1cc(N)nc(SCC(=O)c2ccc3c(c2)NC(=O)CO3)n1 | inconclusive: -40.8% |
| Cc1cc(C)cc(C(=O)N2CCN=C2c2ccccc2)c1 | inconclusive: -45% |
| CCN(c1ccccc1)S(=O)(=O)c1cc(C(=O)Nc2ccc(F)c(F)c2)ccc1F | active: -90.9% |
| O=C(Nc1ccc(OCc2ccccc2Cl)cc1)c1cccnc1 | inconclusive: -43.3% |
| CCOc1cc(Br)ccc1S(=O)(=O)NCc1ccccc1 | inactive: 8.89% |
| COc1nc(Nc2ccc([N+](=O)[O-])cc2)nc(NC(C)C)n1 | inactive: 33.5% |
| COc1cc(OC)c(OC)cc1/C=C1/Cc2ccccc2C1=O | inactive: -10.2% |
| COc1ccc2ccccc2c1CN1CCN(C(=O)c2ccccc2)CC1 | inactive: 32.3% |

Part of the list above, set out differently:
SMILES	activity change, negative = inhibition
CC(C)(C)n1nc2c(c1NC(=O)COc1ccc3ccccc3c1)CS(=O)C2 (configuration not stated)	inconclusive: -53.3%
COc1cc(C(=O)NN=C2c3ccccc3-c3ccccc32)cc(OC)c1OC	active: -87.6%
COc1cccc(COC(=O)Cc2ccc(S(=O)(=O)N3CCOCC3)s2)c1OC	inactive: -12.4%
CCC(=O)c1ccc(OCC(=O)N2CCN(CC(=O)Nc3ccccc3C(F)(F)F)CC2)cc1	inconclusive: -54.6%
O=[N+]([O-])c1cccc2c1ccc1ncccc12	inconclusive: -44%
Cc1ccc(C(=O)N2c3ccc(C)cc3C(C)(c3ccccc3)CC2(C)C)cc1 (configuration not stated)	inconclusive: -53.6%
CC1=N/C(=C\c2ccc([N+](=O)[O-])cc2)C(=O)N1c1ccc(Cl)cc1	inconclusive: -46%
CN(c1ccccc1)S(=O)(=O)c1cc(C(=O)Nc2nc3ccccc3[nH]2)ccc1Cl	active: -61.3%
COc1ccc(OCC(=O)NCc2ccc3c(c2)CCN3C(=O)c2ccccc2)cc1	inactive: 6.2%
O=C(O)CCN1C(=O)/C(=C2\C(=O)N(Cc3ccc(F)cc3)c3ccccc32)SC1=S	inconclusive: -48.4%
COc1ccccc1N1CCN(c2ncnc3c2cnn3-c2cc(Cl)ccc2C)CC1	inconclusive: -45.7%
O=S(=O)(c1ccc(Br)s1)N1CCCCC1	inconclusive: -40.8%
Nc1cc(N)nc(SCC(=O)c2ccc3c(c2)NC(=O)CO3)n1	inconclusive: -40.8%
Cc1cc(C)cc(C(=O)N2CCN=C2c2ccccc2)c1	inconclusive: -45%
CCN(c1ccccc1)S(=O)(=O)c1cc(C(=O)Nc2ccc(F)c(F)c2)ccc1F	active: -90.9%
O=C(Nc1ccc(OCc2ccccc2Cl)cc1)c1cccnc1	inconclusive: -43.3%
CCOc1cc(Br)ccc1S(=O)(=O)NCc1ccccc1	inactive: 8.89%
COc1nc(Nc2ccc([N+](=O)[O-])cc2)nc(NC(C)C)n1	inactive: 33.5%
COc1cc(OC)c(OC)cc1/C=C1/Cc2ccccc2C1=O	inactive: -10.2%
COc1ccc2ccccc2c1CN1CCN(C(=O)c2ccccc2)CC1	inactive: 32.3%

Additional results:

| SMILES | activity change, negative = inhibition |
| --- | --- |
| c1ccc(C(c2nnnn2C2CCCC2)N2CCN(c3ccccc3)CC2)cc1 (configuration not stated) | inactive: -25% |
| O=C(Nc1nccs1)c1ccc(-c2ccc([N+](=O)[O-])cc2)o1 | inconclusive: -56.7% |
| O=C(NN(Cc1ccccc1)Cc1ccccc1)c1ccccc1 | inconclusive: -45.8% |
| Cc1ccccc1OCc1nnc(SCc2cc(=O)[nH]c3ccccc23)n1-c1ccccc1 | inconclusive: -42.5% |
| Cc1ccc(CNC(=O)c2ccc3c(c2)nc(C)n3-c2cccc(F)c2)cc1 | active: -76.6% |
| CN[C@H]1CCc2cc(OC)c(OC)c(OC)c2-c2ccc(N(C)CC(OC)OC)c(=O)cc21 | active: -73.8% |
| CC1CC(C)CN(CCCNC(=O)c2ccc3c(c2)ncn3C2CCCC2)C1 (configuration not stated) | inconclusive: -45.8% |
| CCCC#CCN1CCN(C23CC4CC(CC(C4)C2)C3)CC1 | inconclusive: -46.7% |
| COc1cc(-c2cc(N)n(S(=O)(=O)c3ccc(F)cc3)n2)cc(OC)c1OC | inactive: -6.35% |
| Nc1nc(N)nc(-c2cc(O)ccc2O)n1 | inconclusive: -58.3% |
| Cc1cc(C)nc(/N=C(\N)Nc2ccc(-c3ccccc3)cc2)n1 | inconclusive: -58.8% |
| Cc1ccccc1OCCn1c(=S)[nH]c2c(N)ncnc21 | active: -79.5% |
| COc1cccc(CC(=O)Nc2ccc3c(c2)c(=O)n(C)n3-c2ccc(C(C)(C)C)cc2)c1 | inconclusive: -47.2% |
| COc1cccc(C2c3cccn3-c3ccccc3N2C=NC(C)(C)C)c1 (configuration not stated) | inactive: 22.5% |
| CCc1ccc(Sc2cc(C(=O)NCc3cccc(OC)c3)c3ccccc3n2)cc1 | inconclusive: -54.6% |
| CCOC(=O)c1c(C)n(-c2ccc(C)cc2)c2c(C(C(C)=O)C(=O)O)c(Br)c(O)c(O)c12 (configuration not stated) | inconclusive: -41.3% |
| CCCCn1c(-c2ccccc2C)nc2cc3[nH]c(=O)c(C(C)C)nc3cc21 | inactive: 2.29% |
| Cc1cc(=O)n2[nH]c(SCc3ccccc3Cl)nc2n1 | inconclusive: -57.6% |
| Oc1nc(Nc2ccc(F)cc2)sc1/C=C1\C=Nc2ccccc21 | inconclusive: -58% |
| CCOC(=O)C1CCN(S(=O)(=O)c2c(C(=O)N3CCCCC3)c(C)n(C)c2C)CC1 | inconclusive: -40.9% |
| CCc1ccc(Sc2cc(C(=O)NCc3ccccc3OC)c3ccccc3n2)cc1 | inconclusive: -50.7% |
